From patent US20250186475A1, “METHODS OF TREATING MEDICAL CONDITIONS USING ISLATRAVIR OR A RELATED COMPOUND” (ROME Therapeutics, Inc., priority 2022, published 2025)
For at least one compound, name, drawing or mass did not settle the structure.

System: interferon-stimulated gene (ISG) expression
Assay: In vivo decitabine challenge model
Design: species or system C57BL/6 mice
Details: decitabine i.p. 5 mg/kg once daily Day 0 to Day 4, control animals (no islatravir)
Method: Twenty 9-11 week old C57BL/6 mice were acclimated to the lab for at least 5 days. Islatravir was prepared in a 0.5% methylcellulose solution for p.o. administration. Decitabine (Sigma) was dissolved in sterile PBS (pH 7.4) and dosed within 30 minutes of preparation of the solution. Doses of both islatravir and decitabine were administered once a day, every day from Day 0 to Day 4. On Day 0, mice were split into four groups of five mice and given their first dose of decitabine (i.p., 5 mg/kg) and compound 23. Dosing groups were: [table] Decitabine and islatravir were administered daily from Day 0 to Day 4. All mice were euthanized 1 hour after the last dose administration on Day 4. Spleens, liver, and terminal colon were collected, along with plasma from each animal. The fold changes in interferon-stimulated gene (ISG) expression was calculated by first normalizing to GAPDH gene using the Delta CT method. The CT (gene of interest)—CT (reference gene) was calculated to generate a delta CT for all samples. The fold change was then calculated by taking the […](Delta CT(control)−Delta CT (experimental). The control in this example was the PBS control animal group. The Taqman duplex assay (Thermo Fisher 4331182 and 4448489) was used according to the manufacturer's instructions to determine levels of GAPDH v. IFIT2.

With `Nc1ncn([C@H]2C[C@H](O)[C@@H](CO)O2)c(=O)n1` [decitabine] the “interferon-stimulated gene (ISG) response in the spleen” value was “induced interferon-stimulated gene (ISG) response”.
